{"source": "PubChem BioAssay AID493014", "about": "(National Center for Advancing Translational Sciences (NCATS), 2011)", "note": "Some of the results follow. The main result of the screen is listed elsewhere. These columns were measured beside it and carry no call. Compounds called inactive in the main read-out are mostly missing here. Words in brackets tell the shape of the fitted curve; partial curves, single points and poor fits give uncertain potencies."}
{"assay": "qHTS Assay to Find Inhibitors of Chronic Active B-Cell Receptor Signaling", "details": "ABC-DLBCL IkBa-CBG/CBR reporter, luminescence ratio (green luciferase fused to IkBa over red control in TMD8 lymphoma cells), 4 h; measured here: CBR red luminescence, cell number", "procedure,_shortened": "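TMD8 ABC-DLBCL cells carrying doxycycline-inducible green luciferase fused to IkappaBalpha plus unfused red luciferase were exposed to compounds (up to 46 uM) for 4 hrs at 37C. Activity came from the overlap-corrected green/red luminescence ratio.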"}
{"smiles": "COc1cc(C(CC(=O)N2CCN(c3ccccc3)CC2)c2c(OC)cc(OC)c3ccc(=O)oc23)cc(OC)c1OC", "note": "(configuration not stated)", "AC50": "0.398 µM [rising, partial curve, poor fit]"}
{"smiles": "C=CCOC(=O)CCC(=O)Nc1cccc2ccccc12", "AC50": "35.5 µM [rising, single point]"}
{"smiles": "O=C(Nc1cccc(-c2cnc3ccccc3n2)c1)c1cccc(NC(=O)c2ccco2)c1", "AC50": "10.3 µM [falling, partial curve, poor fit]"}
{"smiles": "CC1(C)CCC(=O)N2CC[C@H]3C[C@H](OC(=O)Nc4ccccc4)C[C@@H]1[C@H]32", "AC50": "12.6 µM [falling, partial curve, poor fit]"}
{"smiles": "CC(C)(C)c1nc2cc(Cl)c([N+](=O)[O-])cc2o1", "AC50": "3.98 µM [rising, full curve, poor fit]"}
{"smiles": "CCCN(CCC)C(=O)CC(c1ccccc1)c1ccc(C)cc1O", "note": "(configuration not stated)", "AC50": "23.1 µM [falling, single point]"}
{"smiles": "CC(C)NC(=O)Nc1ccc2c(c1)C(=O)N([C@H](C)CO)C[C@H](C)[C@@H](CN(C)C(=O)Nc1ccc3c(c1)OCO3)O2", "AC50": "6.51 µM [rising, full curve, poor fit]"}
{"smiles": "COc1ccc(-c2nc3sc(CCNC(=O)c4cc(OC)c(OC)c(OC)c4)c(C)n3n2)cc1", "AC50": "6.31 µM [rising, single point]"}
{"smiles": "CNc1nc(SCc2ccc(C)cc2)nc2c1CCCC2", "AC50": "20 µM [falling, partial curve, poor fit]"}
{"smiles": "Cn1c(=O)c2c(nc(NCc3ccc4c(c3)OCO4)n2Cc2ccccc2F)n(C)c1=O", "AC50": "3.98 µM [falling, single point]"}
{"smiles": "O=C(Nc1ccncc1)c1ccc(Cl)c(S(=O)(=O)N2CCCC2)c1", "AC50": "16.4 µM [falling, partial curve, poor fit]"}
{"smiles": "CC(C)(C)C(=O)Nc1ccc(N2CCN(c3ccc(C(F)(F)F)cn3)CC2)nc1", "AC50": "35.5 µM [rising, single point]"}
{"smiles": "Cc1cc(Cl)ccc1NC(=S)NC1CCCC1", "AC50": "0.447 µM [rising, partial curve, poor fit]"}
{"smiles": "Cc1cc(NC(=O)CSc2nnc(-c3cccs3)n2N)no1", "AC50": "1.78 µM [falling, partial curve]"}
{"smiles": "Cc1cc2oc(=O)cc(CN(C)Cc3ccccc3F)c2cc1Cl", "AC50": "5.62 µM [rising, full curve, poor fit]"}
{"smiles": "CCN1CC(CN(C)Cc2cn(-c3ccc(C)cc3)nc2-c2cccc(C)c2)CC1=O", "note": "(configuration not stated)", "AC50": "22.4 µM [falling, single point]"}
{"smiles": "COc1ccc(NC(=O)COc2ccccc2)cc1Cl", "AC50": "20 µM [rising, partial curve, poor fit]"}
